Measurements as given in publication PMC12221368, “Long AKAP18 isoforms anchor ubiquitin specific proteinases and coordinate calcium reuptake at the sarcoplasmic reticulum” (The Journal of Biological Chemistry, 2025).

What was measured:
GFP-AKAP18γ = test: co-IP; HEK293 cells cotransfected with GFP-AKAP18 isoforms and V5-USP4; lysis buffer 25 mM Hepes pH 7.4, 150 mM NaCl, 1% Triton X-100; rabbit anti-GFP IgG and protein A agarose, 2 h at 4 °C; anti-V5 blot; IgG controls
[1] = molecular target: AKAP18 (endogenous, mouse heart) (mouse (endogenous in adult cardiomyocytes and heart)); test: proximity ligation; fixed isolated mouse adult cardiomyocytes, endogenous proteins, antibody pairs (RIIα + AKAP18; USP4 + AKAP18); control with secondary antibodies alone

Binder	binding (GFP-AKAP18γ)	binding [1]
V5-tagged USP4 (enzyme, UniProt Q13107 1-963, looked up) MAEGGGCRERPDAETQKSELGPLMRTTLQRGAQWYLIDSRWFKQWKKYVGFDSWDMYNVGEHNLFPGPIDNSGLFSDPESQTLKEHLIDELDYVLVPTEAWNKLLNWYGCVEGQQPIVRKVVEHGLFVKHCKVEVYLLELKLCENSDPTNVLSCHFSKADTIATIEKEMRKLFNIPAERETRLWNKYMSNTYEQLSKLDNTVQDAGLYQGQVLVIEPQNEDGTWPRQTLQSKSSTAPSRNFTTSPKSSASPYSSVSASLIANGDSTSTCGMHSSGVSRGGSGFSASYNCQEPPSSHIQPGLCGLGNLGNTCFMNSALQCLSNTAPLTDYFLKDEYEAEINRDNPLGMKGEIAEAYAELIKQMWSGRDAHVAPRMFKTQVGRFAPQFSGYQQQDSQELLAFLLDGLHEDLNRVKKKPYLELKDANGRPDAVVAKEAWENHRLRNDSVIVDTFHGLFKSTLVCPECAKVSVTFDPFCYLTLPLPLKKDRVMEVFLVPADPHCRPTQYRVTVPLMGAVSDLCEALSRLSGIAAENMVVADVYNHRFHKIFQMDEGLNHIMPRDDIFVYEVCSTSVDGSECVTLPVYFRERKSRPSSTSSASALYGQPLLLSVPKHKLTLESLYQAVCDRISRYVKQPLPDEFGSSPLEPGACNGSRNSCEGEDEEEMEHQEEGKEQLSETEGSGEDEPGNDPSETTQKKIKGQPCPKRLFTFSLVNSYGTADINSLAADGKLLKLNSRSTLAMDWDSETRRLYYDEQESEAYEKHVSMLQPQKKKKTTVALRDCIELFTTMETLGEHDPWYCPNCKKHQQATKKFDLWSLPKILVVHLKRFSYNRYWRDKLDTVVEFPIRGLNMSEFVCNLSARPYVYDLIAVSNHYGAMGVGHYTAYAKNKLNGKWYYFDDSNVSLASEDQIVTKAAYVLFYQRRDDEFYKTPSLSSSGSSDGGTRPSSSQQGFGDDEACSMDTN	binds	–
USP4 (endogenous, mouse) (enzyme, UniProt P35123 1-962) MAEGRGSRERPDVETQKTELGALMGTTLQRGAQWYLIDSRWFKQWKKYVGFDSWDMYNVGEHNLFPGPIDNSGLFSDPESQTLKEHLIDELDYVLVPAEAWNKLLNWYGCVEGQQPIVRKVVEHGLFVKHCKVEVYLLELKLCENSDPTNVLSCHFSKADTIATIEKEMRKLFNIPAERETRLWNKYMSNTYEQLSKLDNTIQDAGLYQGQVLVIEPQNEDGTWPRQSLQSKSSTAPSRNFTTSSKPSASPYCSVSASLIANGDSTNSSGMHSSGVSRGGSGFSASYNCQEPPSPHIQPGLCGLGNLGNTCFMNSALQCLSNTAPLTEYFLKDEYEAEINRDNPLGMKGEIAEAYAELIKQMWSGRDTHVAPRMFKTQVGRFAPQFSGYQQQDSQELLAFILDGLHEDLNRVKKKPYLEPKDANGRPDAVVAKEAWENHRLRNDSVIVDTFHGLFKSTLVCPECAKVSVTFDPFCYLTLPLPLKKDRIMEVFLVPADPQCRPIQYRVTVPLMGAISDLCEALSKLSGIAAENMVVTDVYNHRFHKIFQMDEGLSHITPRDDIFVYEVCNTSMDGSECITLPVYFREKKSRPSSASSGAVLYGQPLLVSVPKHKLTLESLYQAVCDRISRYIKQPLPDEFLSSPLEPGACNGSRSSYEGDEEEEMDHQEEGKEQLSEVEGSGEDDQGDDHSESAQKVKGQPRHKRLFTFSLVNSCGTADINSLATDGKLLKLNSRSTLAIDWDSETRSLYFDEQESEACEKHLSMSQPQKKKKAAVALRECIELFTTMETLGEHDPWYCPTCKKHQQATKKFDLWSLPKILVVHLKRFSYNRYWRDKLDTVVEFPVRALNMSEFVCDRSARPYVYDLIAVSNHYGAMGVGHYTAYAKNRLNGKWYYFDDSSVSLASEDQIVTKAAYVLFYQRRDDECSSTSSLGSFPGSDGGVKLSSSHQGMGDEEAYNMDTN	–	binds

These are yes or no findings as the source states them, for the method shown. In cells and extracts the contact can be indirect. Binding can be weak; no strength is given. For some assays here: Where a sequence is shown, tags or fusion partners need not be part of it.
